In article PMC12040169 (PLOS Biology, 2025):
The list shows a part of the results.

System: T1, CTL2-GFP (C. trachomatis L2/434/Bu, GFP-expressing)
T1 construct: L2/434/Bu, GFP-expressing
Parameters: species or system HeLa; Intracellular C. trachomatis growth in HeLa cells, bulk GFP fluorescence relative to DMSO
Settings: bulk GFP, single well; 28.5 h, 10 µM; inhibitor

SMILES	% of control remaining
NC1=C(N)OC(Oc2ccccc2C(F)(F)F)=NN1 [CBK018424]	101.282%
Cc1ccc(S(=O)(=O)NCc2ccccc2)c(C)c1NS(C)(=O)=O [CBK268555]	150.86%
COCc1nc2n(n1)CC(NC1CCCc3sccc31)CC2 (centres unmarked) [CBK305116]	92.311%
Cc1cc(C)c(C(=O)NC2CCN(c3ncccc3C#N)CC2)c(=O)[nH]1 [CBK306709]	108.968%
CN1C[C@H](CNC(=O)Nc2ccc(F)c(F)c2)[C@@H](c2ccc(Cl)c(Cl)c2)C1 [CBK076770]	66.0716%
CN1C(=O)CC2(C1=O)C(=O)N(CC(=O)O)c1ccc(Cl)cc12 (centres unmarked) [CBK076107]	135.281%
CC(=O)N[C@H](CC(N)=O)C(=O)N1CCC2(C/C=C/C[C@@H]3COCC[C@@H]3NC(=O)[C@@H](CC(C)C)NC2=O)CC1 [CBK292207]	145.04%
CCCC(=O)N1CCC(c2nc3ccccn3c2NC(C)(C)C)CC1 [CBK284744]	149.708%
Cc1c(C(=O)O)sc(S(=O)(=O)N2CCN(C(=O)c3ccc(F)cc3)CC2)c1C(=O)O [CBK297118]	100.14%
CN(C)CC(=O)N1CN(C(=O)c2cccc(Br)c2)C(C)(C)C1 [CBK092206C]	119.276%
COc1ccc(-c2csc(CCNC(=O)Cc3c[nH]c(=O)[nH]c3=O)n2)cc1 [CBK285670]	137.839%
Cc1ccc(C2=CCN(CC(=O)N3CCCCC3C)CC2)o1 (centres unmarked) [CBK283556]	135.171%
CCn1cc(-c2nc3cc(S(=O)(=O)NC(C)C)ccc3n2C(C)C)cn1 [CBK307311]	87.9707%
COc1ccc(CN(CCN(C)C)C(=O)NCc2ccc(-c3ccccc3)cc2)cc1OC [CBK159293]	112.144%
COc1cccc(CCNC2CC(=O)N(c3ccc(NC(C)=O)cc3)C2=O)c1 (centres unmarked) [CBK265233]	102.578%
CN(C)CCCC(=O)N1CCN(c2ncccn2)CC1 [CBK144523]	87.1971%
COc1cccc(N2C(=O)N[C@@H]3CCN(S(=O)(=O)c4ccccc4)[C@@H]3C2=O)c1 [CBK289283]	121.734%
N#CCCCN1CCC(Oc2cncc(OCCN3CCOCC3)n2)C1 (centres unmarked) [CBK084495]	82.2847%
COc1ccccc1CNC(=O)N[C@@H](CC(C)C)C(=O)O [CBK286722]	117.997%
O=C(NC(Cc1cccs1)c1nccs1)C1CSCN1 (centres unmarked) [CBK284805]	157.604%
NS(=O)(=O)c1ccc(NC(=S)N2CCN(CCc3ccccc3)CC2)cc1 [CBK268133]	99.8655%
COc1cccc(-c2cnc(N(C)S(C)(=O)=O)c(C(=O)NC3CCCCC3)c2)c1 [CBK106446]	125.07%
Cc1cccc(C(=O)N2CCCCC2C)c1 (centres unmarked) [CBK074052]	123.395%
CCc1cc2cc3c(cc2nc1SCC(=O)Nc1cc(OC)ccc1OC)OCO3 [CBK108546]	116.564%
N#CCCCN1C(=O)C(O)(CC(=O)c2ccccn2)c2ccccc21 (centres unmarked) [CBK307373]	99.8229%

Compounds above that have a thiophene ring, fused or not:
SMILES	% of control remaining
COCc1nc2n(n1)CC(NC1CCCc3sccc31)CC2 (centres unmarked) [CBK305116]	92.311%
Cc1c(C(=O)O)sc(S(=O)(=O)N2CCN(C(=O)c3ccc(F)cc3)CC2)c1C(=O)O [CBK297118]	100.14%
O=C(NC(Cc1cccs1)c1nccs1)C1CSCN1 (centres unmarked) [CBK284805]	157.604%

The list continues:

SMILES	% of control remaining
CCOC(=O)CN1C(=O)S/C(=C/c2ccc(OCc3ccc(Br)cc3)cc2)C1=O [CBK264686]	100%
CCc1nc2c(OCCOC)cccn2c1N(C)C(=O)c1ccccc1F [CBK147722]	114.775%
O=C(CCS(=O)(=O)Cc1ccccc1)Nc1cc(C(F)(F)F)ccc1Cl [CBK268399]	88.092%
N#CCSC1=CC(=O)CC(c2ccccc2)S1 (centres unmarked) [CBK008460]	90.9289%
O=C(CN1CCOCC1)N1CCN(C(=O)c2ccc(Cl)cc2Cl)CC1 [CBK028992]	115.274%
Cc1cc(/C=C2/NC(=O)NC2=O)c(C)n1-c1ccc(S(N)(=O)=O)cc1 [CBK264747]	123.557%
CNS(=O)(=O)c1cc(C(=O)N2CCN(c3ccccc3)CC2)ccc1OC [CBK270192]	143.315%
CCC(CN1CCN(C)CC1)NC(=O)Cc1coc2cc(C)ccc12 (centres unmarked) [CBK282790]	124.437%
CCCNc1nc(Cl)nc(NCc2cccnc2)n1 [CBK261995]	109.541%
COc1ccc(Oc2cncc(OC3CCN(CC(N)=O)C3)n2)cc1OC (centres unmarked) [CBK084402]	99.8612%
Cc1cc(C)nc(N2CCC(CC(=O)Nc3ccccc3CN3CCCC3)CC2)n1 [CBK286072]	92.1292%
N#Cc1ccccc1CSc1nnc(Cc2cccc3ccccc23)n1-c1ccccc1 [CBK266633]	57.3454%
CN1CCC(N2CCN(C(=O)C3(c4ccccc4)CCCC3)CC2)CC1 [CBK149096]	101.938%
C=CCn1oc(=O)n(-c2ccc(OC)cc2)c1=O [CBK122773]	135.204%
O=C1/C(=C/c2c(NCCCn3ccnc3)nc3ccccn3c2=O)SC(=S)N1C1CCCCC1 [CBK264696]	120.915%
CCN(CC)CCn1nc2n(c1=O)-c1ccccc1SC(c1ccccc1)C2 (centres unmarked) [CBK016064]	103.029%
C=C(C)Cn1c(SCC(C)C)nnc1-c1cnccc1C [CBK200075T]	132.023%
CS(=O)(=O)N1CC[C@H](c2nc3ccccc3s2)C1 [CBK289374]	135.199%
CC(C)OC(=O)CN1C(=O)N2CCCN=C2c2ccccc21 [CBK284394]	117.163%
COc1ccc(C2NCCS2)cc1Br (centres unmarked) [CBK021053]	103.103%
CC(C(=O)Nc1sc2c(c1C(=O)NCc1ccco1)CCCC2)N1C(=O)c2ccccc2C1=O (centres unmarked) [CBK265603]	100%
CSc1nnc(CC2CCN(C(=O)Cn3nnnc3N)CC2)n1C [CBK306520]	128.885%
CN1N=C(c2ccc(N3CCOCC3)c(F)c2)CC1c1cnn(C)c1 (centres unmarked) [CBK305726]	112.923%
Cc1ccc(C(=O)/C=C(\Nc2cccc(C(F)(F)F)c2)C(=O)O)cc1 [CBK264366]	118.536%
COc1ccnc(N2CCN(C(=O)c3cccc4c3NCCC4)CC2)n1 [CBK306639]	107.358%
